# Counter-ions that a name gives are not always drawn. ± gives the standard deviation of the averaged measurements. This is one part of the list. These are raw signals, not scaled to a control.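 HeLa cells imaged for ribosome-assembly readouts (ENP1 staining with or without export block, or inducible tagged ribosomal protein reporters); machine learning classified each cell's signal location against solvent (DMSO) controls. Hits exceeded the DMSO false-positive mean by five standard deviations, then were visually confirmed; three biological replicates.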
# How the values were obtained:
# [1] = tested on: HeLa K (ENP1 immunofluorescence, +LMB); assay: fraction of cells with nucleolar or nucleolar/nucleoplasmic ENP1 signal (MainHitrate); higher = more cells with nucleolar/nuclear readout signal (for ENP1 -LMB: less RNAPI inhibition; for +LMB ENP1 and RP reporters: stronger nuclear/nucleolar retention, i.e. ribosome biogenesis defect); conditions: concentration: 1 µM; treatment time: 6 h; ENP1 +LMB; leptomycin B: 20 nM, last 1.5 h
# [2] = tested on: HeLa K (ENP1 immunofluorescence, no LMB); assay: as above; conditions: concentration: 1 µM; treatment time: 6 h; ENP1 -LMB; leptomycin B: none
# HeLa RPS2-YFP reporter = assay: fraction of reporter-positive cells with nuclear (nucleolar or nucleolar/nucleoplasmic) RPS2-YFP (MainHitrate); higher = more cells with nucleolar/nuclear readout signal (for ENP1 -LMB: less RNAPI inhibition; for +LMB ENP1 and RP reporters: stronger nuclear/nucleolar retention, i.e. ribosome biogenesis defect); conditions: concentration: 1 µM; treatment time: 6 h
# HeLa RPL29-GFP reporter = assay: fraction of reporter-positive cells with nuclear (nucleolar or nucleolar/nucleoplasmic) RPL29-GFP (MainHitrate); higher = more cells with nucleolar/nuclear readout signal (for ENP1 -LMB: less RNAPI inhibition; for +LMB ENP1 and RP reporters: stronger nuclear/nucleolar retention, i.e. ribosome biogenesis defect); conditions: concentration: 1 µM; treatment time: 6 h
Structure (SMILES),fraction [1],fraction [2],fraction of reporter-positive cells with nuclear (HeLa RPS2-YFP reporter),fraction of reporter-positive cells with nuclear (HeLa RPL29-GFP reporter)
C[C@H]1C[C@H]2[C@@H]3CCC4=CC(=O)C=C[C@]4(C)[C@@]3(F)[C@@H](O)C[C@]2(C)[C@@]1(O)C(=O)CO [Betamethasone (Celestone)],0.0857 ± 0.067,0.9988 ± 0.0021,0.123 ± 0.1,0.2 ± 0.023
CCOC(=O)c1ccc(C#Cc2ccc3c(c2)C(C)(C)CCS3)nc1 [Tazarotene (Avage)],0.0965 ± 0.093,0.998 ± 0.0035,0.103 ± 0.078,0.233 ± 0.058
CCCCC1(COC(=O)CCC(=O)O)C(=O)N(c2ccccc2)N(c2ccccc2)C1=O [Suxibuzone],0.175 ± 0.23,0.9953 ± 0.0081,0.181 ± 0.18,0.308 ± 0.3
N#Cc1c(N(CC(=O)O)CC(=O)O)sc(C(=O)O)c1CC(=O)O [Strontium ranelate (Protelos)],0.144 ± 0.2,0.9943 ± 0.0099,0.148 ± 0.075,0.237 ± 0.098
COc1cc(/C=C/C(=O)CC(=O)/C=C/c2ccc(O)c(OC)c2)ccc1O [Curcumin],0.0885 ± 0.12,0.991 ± 0.016,0.114 ± 0.073,0.218 ± 0.053
CC1(C)[C@@H](O[C@H]2O[C@H](C(=O)O)[C@@H](O)[C@H](O)[C@H]2O[C@@H]2O[C@H](C(=O)O)[C@@H](O)[C@H](O)[C@H]2O)CC[C@]2(C)[C@H]3C(=O)C=C4[C@@H]5C[C@@](C)(C(=O)O)CC[C@]5(C)CC[C@@]4(C)[C@]3(C)CC[C@@H]12 [Ammonium Glycyrrhizinate (AMGZ)],0.146 ± 0.22,0.989 ± 0.02,0.126 ± 0.081,0.225 ± 0.086
NC(=O)OCC(COC(N)=O)c1ccccc1 [Felbamate],0.0433 ± 0.037,0.9981 ± 0.0032,0.0983 ± 0.062,0.224 ± 0.072
COc1cc2/c(=N/c3ccc(Br)cc3F)nc[nH]c2cc1OCC1CCN(C)CC1 [Vandetanib (Zactima)],0.087 ± 0.05,0.9987 ± 0.0023,0.106 ± 0.066,0.197 ± 0.047
CC(=O)Oc1ccc(C(c2ccc(OC(C)=O)cc2)c2ccccn2)cc1 [Bisacodyl],0.0599 ± 0.076,0.983 ± 0.03,0.11 ± 0.1,0.201 ± 0.048
O=C1c2ccccc2C(=O)C1c1ccccc1 [Phenindione (Rectadione)],0.0839 ± 0.12,0.9951 ± 0.0085,0.112 ± 0.086,0.233 ± 0.067
NC1CCN(c2c(F)cc3c(=O)c(C(=O)O)cn(C4CC4)c3c2Cl)C1 (configuration not stated),0.105 ± 0.16,0.993 ± 0.012,0.138 ± 0.14,0.218 ± 0.091
CN1C(C(=O)Nc2ccccn2)=C(O)c2ccccc2S1(=O)=O [Piroxicam (Feldene)],0.0683 ± 0.063,0.9975 ± 0.0043,0.113 ± 0.077,0.184 ± 0.037
NC(=O)CC[C@H](N)C(=O)O [L-Glutamine],0.0874 ± 0.097,0.9986 ± 0.0025,0.104 ± 0.045,0.211 ± 0.07
CCN1CCC[C@H]1CNC(=O)c1cc(S(N)(=O)=O)ccc1OC [Levosulpiride (Levogastrol)],0.066 ± 0.079,0.988 ± 0.021,0.0935 ± 0.076,0.23 ± 0.077
C=C1/C(=C\C=C2/CCC[C@]3(C)[C@@H]([C@H](C)/C=C/[C@H](C)C(C)C)CC[C@@H]23)C[C@@H](O)C[C@@H]1O [Doxercalciferol (Hectorol)],0.0486 ± 0.024,0.9988 ± 0.0021,0.0971 ± 0.068,0.208 ± 0.045
CC1=NN(c2ccc(C)c(C)c2)C(=O)/C1=N\Nc1cccc(-c2cccc(C(=O)O)c2)c1O,0.109 ± 0.15,0.989 ± 0.019,0.111 ± 0.069,0.243 ± 0.062
CCCCCCCCCCCCCCCC[N+](C)(C)CCN(Cc1ccc(OC)cc1)c1ncccn1 [Thonzonium Bromide],0.138 ± 0.21,0.952 ± 0.083,0.17 ± 0.15,0.273 ± 0.2
CCN(CC)CCOC(=O)C(c1ccccc1)c1ccccc1 [Adiphenine HCl],0.0636 ± 0.086,0.9956 ± 0.0077,0.0817 ± 0.064,0.22 ± 0.059
COc1ccc2cc1Oc1ccc(cc1)C[C@H]1c3c(cc4c(c3Oc3cc5c(cc3OC)CCN(C)[C@@H]5C2)OCO4)CCN1C [Cepharanthine],0.0867 ± 0.13,0.9965 ± 0.0061,0.155 ± 0.12,0.22 ± 0.072
O.O=[Si]=O.O=[Si]=O.O=[Si]=O.O=[Si]=O.[O]=[Mg].[O]=[Mg].[O]=[Mg],0.118 ± 0.18,0.983 ± 0.029,0.106 ± 0.061,0.224 ± 0.085
CC(=O)OCC(=O)[C@@]1(O)[C@H](C)C[C@H]2[C@@H]3CCC4=CC(=O)C=C[C@]4(C)[C@@]3(F)[C@@H](O)C[C@@]21C [Dexamethasone acetate],0.0606 ± 0.072,0.985 ± 0.026,0.126 ± 0.11,0.279 ± 0.14
CC1=C(/C=C/C(C)=C/C=C/C(C)=C/C=C/C=C(C)/C=C/C=C(C)/C=C/C2=C(C)CCCC2(C)C)C(C)(C)CCC1 [Beta Carotene],0.119 ± 0.12,0.9989 ± 0.0019,0.126 ± 0.073,0.202 ± 0.04
C1N2CN3CN1CN(C2)C3 [Methenamine (Mandelamine)],0.182 ± 0.28,0.987 ± 0.022,0.104 ± 0.077,0.209 ± 0.069

# A draw from above in order of molecular weight, smallest number first.
Structure (SMILES),fraction [1],fraction [2],fraction of reporter-positive cells with nuclear (HeLa RPS2-YFP reporter),fraction of reporter-positive cells with nuclear (HeLa RPL29-GFP reporter)
CCOC(=O)c1ccc(C#Cc2ccc3c(c2)C(C)(C)CCS3)nc1 [Tazarotene (Avage)],0.0965 ± 0.093,0.998 ± 0.0035,0.103 ± 0.078,0.233 ± 0.058
CC(=O)Oc1ccc(C(c2ccc(OC(C)=O)cc2)c2ccccn2)cc1 [Bisacodyl],0.0599 ± 0.076,0.983 ± 0.03,0.11 ± 0.1,0.201 ± 0.048
CC1=C(/C=C/C(C)=C/C=C/C(C)=C/C=C/C=C(C)/C=C/C=C(C)/C=C/C2=C(C)CCCC2(C)C)C(C)(C)CCC1 [Beta Carotene],0.119 ± 0.12,0.9989 ± 0.0019,0.126 ± 0.073,0.202 ± 0.04
